Results taken from PubChem BioAssay AID2685 (National Center for Advancing Translational Sciences (NCATS), 2010).
Some of the results follow. The main result of the screen is listed elsewhere. These columns were measured beside it and carry no call. Most of these compounds were active or inconclusive in the main read-out, so they are no random draw. The note in brackets gives the kind of curve behind each potency; many fits are weak.

Test: qHTS Assay for Lipid Storage Modulators in Drosophila S3 Cells;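 for cell number change: cells counted by Cell Tracker Red CMTPX staining in the red channel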
Conditions: BODIPY lipid droplet fluorescence, 18-24 h; for cell number change: measured here: cell count max response, cells fed with added oleic acid
Summary of the method: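 Laser-scanning cytometry quantifies lipid droplet accumulation (500–530 nm total intensity; droplet/cell object ratio) in oleic acid-fed (400 uM added) Drosophila S3 cells treated with a concentration series. 20 uM Triacsin C defined 100% inhibition.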

[1] = measured here: cell number channel AC50, cells fed with added oleic acid
[2] = measured here: lipid fluorescence (Fed channel) AC50, cells fed with added oleic acid

Compound	cell number change	AC50 [1]	AC50 [2]
N#C/C(=C\Nc1ccc2c(c1)OCCO2)c1nc2ccccc2[nH]1	-2.28%	1.64 µM [falling, partial curve]	5.8 µM [falling, partial curve]
CCOc1ccc(C(=O)Nc2cc(C)c3c(=O)oc4ccccc4c3n2)cc1	7.36%	–	–
O=C(CSc1nnc(Nc2ccccc2F)s1)c1cc2ccccc2o1	-63.8%	14.6 µM [falling, partial curve]	8.2 µM [falling, partial curve]
COc1ccc(OC)c(Cc2nnc(CCC(=O)NCc3nc4ccccc4s3)o2)c1	-29.7%	–	18.4 µM [falling, partial curve, poor fit]
Cc1cc(S(=O)(=O)N2CCCC(N3CCOCC3)C2)c(C)cc1Cl (stereo not drawn)	10.3%	–	25.9 µM [rising, single point]
O=C(N/N=C/c1cccc(Oc2ccccc2)c1)c1ccncc1	–	–	29.1 µM [rising, single point]
COc1ccc(Br)cc1-c1nc(CCl)cs1	41.2%	–	–
C[C@@H](C(=O)NCC1CC1)[C@@H]1C[C@@]1(C)[C@@H](NC(=O)OCc1ccccc1)c1ccccc1	26.6%	–	29.1 µM [rising, single point]
COCCN1C(=O)c2ccccc2C(C(=O)NCCN(C)C)C1c1ccc(F)cc1 (stereo not drawn)	-29.3%	0.259 µM [falling, full curve, poor fit]	0.411 µM [falling, full curve]
Cc1cc(-c2nnc(CSc3nnc(NC(=O)c4ccc(C(C)(C)C)cc4)s3)o2)ccc1[N+](=O)[O-]	-0.32%	4.11 µM [rising, single point]	6.51 µM [rising, single point]
CCOc1cc(/C=N/NC(=O)c2ccccn2)ccc1OC(=O)c1cccs1	-37.6%	2.06 µM [falling, partial curve]	0.58 µM [rising, single point]
COC(=O)c1sc(S(=O)(=O)N2CCN(CCO)CC2)c(C(=O)OC)c1C	-26.5%	0.259 µM [falling, full curve, poor fit]	29.1 µM [falling, single point]
CS(=O)(=O)N(CC(=O)N1CCN(C(c2ccccc2)c2ccccc2)CC1)C1CCCCC1	–	–	0.411 µM [falling, partial curve, poor fit]
Nc1nc(-c2ccc(Oc3ccccc3)cc2)cs1	-30.7%	14.6 µM [falling, single point]	29.1 µM [falling, single point]
Cc1ccc(C(=O)C2CCN(CC(=O)Nc3ccccc3C)CC2)cc1	20.5%	–	29.1 µM [rising, single point]
CCc1c(C)nc2[nH]nc(-c3ccccc3)n2c1=O	8.79%	–	–
COc1cc(OC)c(NC(=O)c2ccc(F)cc2)cc1Cl	53.9%	5.8 µM [rising, partial curve, poor fit]	5.8 µM [rising, partial curve, poor fit]
CC(C)[C@H](NC(=O)c1ccccc1)C(=O)Nc1cccc(S(=O)(=O)N2CCOCC2)c1	12.2%	–	16.4 µM [falling, single point]
Cc1ccc(-c2nnc(N3CCN(CCO)CC3)c3ccccc23)cc1	29.4%	–	29.1 µM [rising, partial curve, poor fit]

Compound	cell number change	AC50 [1]	AC50 [2]
CCOc1ccc(N2CC(O)=C(c3nc4ccccc4c(=O)[nH]3)C2=N)cc1	–	0.411 µM [rising, partial curve, poor fit]	–
COc1ccc(/C=N/N(C(C)=O)c2nc(-c3ccc(C)cc3)cs2)cc1	-3.31%	2.06 µM [falling, partial curve, poor fit]	2.06 µM [falling, partial curve]
CCCc1cc(=O)oc2cc(OCC(=O)Nc3ccc(CN4CCOCC4)cc3)c(Cl)cc12	7.65%	0.82 µM [rising, partial curve, poor fit]	2.06 µM [rising, partial curve]
O=C(COc1ccc(F)cc1)Nc1ccc2c(c1)OCCO2	34.7%	35.5 µM [rising, single point]	20 µM [rising, partial curve, poor fit]
CN1C(=O)/C(=C/c2ccc3c(c2)OCO3)N=C1c1ccccc1	5.39%	–	1.84 µM [rising, partial curve, poor fit]
NC(=O)c1cccc(N=Cc2cc(Cl)cc(Cl)c2O)c1	47.4%	–	–
O=C(CCS(=O)(=O)c1ccccc1Cl)Nc1ccc(S(=O)(=O)Nc2ncccn2)cc1	–	–	29.1 µM [rising, single point]
COc1ccccc1NC(=O)COc1ccccc1	8.26%	–	0.231 µM [rising, full curve, poor fit]
CCCCNC(=O)/C(C#N)=C/c1ccc2c(c1)OCCO2	-20.1%	–	20.6 µM [falling, single point]
Cc1cc(C)n(C(=O)C(C)N2C(=O)c3ccccc3C2=O)n1 (stereo not drawn)	2.07%	–	–
COc1cc(C(=O)Nc2c(C)cc(C)cc2C)c(Br)c(OC)c1OC	–	6.51 µM [rising, single point]	2.06 µM [rising, partial curve]
Cc1cccc(S(=O)(=O)c2c(N)n(Cc3ccco3)c3nc4ccccc4nc23)c1	0.194%	–	0.731 µM [rising, partial curve]
CCC(CC)CN1C(Nc2ccccc2)=NC[C@@H]1CC(C)C	-6.59%	–	–
CCc1ccccc1N1CSC2=C(C#N)C(c3cc(OC)c(OC)cc3OC)CC(=O)N2C1 (stereo not drawn)	-19.9%	–	–
Cn1c(=O)c2c(-c3ccccc3)n(Cc3ccccn3)cc2n(C)c1=O	0.5%	0.13 µM [falling, full curve]	–
COc1ccc(C)cc1S(=O)(=O)Nc1ccc2c(c1)N(C(C)=O)CCC2	-20.9%	2.06 µM [rising, partial curve, poor fit]	–
CCN(CC(=O)NCC(=O)Nc1ccc(Br)cc1C)Cc1ccccc1	–	1.03 µM [rising, partial curve]	1.03 µM [rising, partial curve]
Cc1cc(=O)[nH]c2c(N=Nc3ccc(O)cc3)c(N)nn12	3.82%	–	0.731 µM [rising, single point]
COc1ccc(-n2c(-c3ccc(Br)cc3)c[n+]3c2CCc2ccccc2-3)cc1	-72.9%	11.6 µM [falling, partial curve]	9.2 µM [falling, partial curve, poor fit]

Compound	cell number change	AC50 [1]	AC50 [2]
Cc1ccc(-n2c(-c3ccc(Cl)cc3Cl)n[nH]c2=S)cc1	14.7%	–	–
CCOC(=O)C(NC(=O)c1ccccc1)(N1CCCC1=O)C(F)(F)F (stereo not drawn)	-7.24%	–	0.0731 µM [rising, full curve, poor fit]
CCC(Oc1ccccc1)C(=O)Nc1ccc(S(=O)(=O)Nc2cc(C)on2)cc1 (stereo not drawn)	24.4%	–	0.103 µM [falling, full curve, poor fit]
C=C(C)C1CCC(C)=C1COC(=O)Nc1ccccc1 (stereo not drawn)	-42.5%	–	11.6 µM [falling, partial curve, poor fit]
O=C(O)C1CCCN(C(=O)NCc2ccccc2)C1 (stereo not drawn)	-50.7%	20.6 µM [falling, partial curve]	29.1 µM [falling, single point]
CC(=O)NN1C(=O)/C(=C\c2ccc(O)cc2)SC1=S	4.77%	–	0.651 µM [rising, single point]
CC(C)C(c1nnnn1C1CCCC1)N1CCCc2ccccc21 (stereo not drawn)	-23.5%	–	29.1 µM [falling, single point]
CCOC(=O)C1=C(CSc2nc(-c3ccccc3)ccc2C#N)OC(N)=C(C#N)C1c1ccccc1 (stereo not drawn)	–	1.64 µM [rising, partial curve]	2.31 µM [rising, partial curve]
COC(=O)c1c(-n2c(C)cc(C=O)c2C)sc2c1CCCC2	-24.5%	3.66 µM [falling, full curve, poor fit]	3.66 µM [falling, full curve]
COc1cc2c(cc1OC)CN(CC(=O)Nc1ccc3c(c1)OCO3)CC2	-5.57%	–	0.82 µM [falling, full curve]
O=C(COc1coc(CN2CCc3ccccc32)cc1=O)NCCc1ccccc1	–	1.84 µM [rising, partial curve, poor fit]	–
O=C(Oc1ccc2ccc(=O)oc2c1)c1cccs1	-48.3%	9.2 µM [falling, partial curve, poor fit]	6.51 µM [falling, single point]
COc1ccc(/C=N/OCC(=O)N=Nc2c(O)[nH]c3ccc(Br)cc23)cc1OC	-53.1%	0.82 µM [falling, partial curve]	18.4 µM [falling, single point]
Cc1ccc(C(=O)Nc2ccc(Oc3ccc(C(=O)O)c(C(=O)O)c3)cc2)cc1C	13.9%	–	–
Cc1ccc2c(c1)[nH]c1c(=O)n(CCN3CCNCC3)cnc12	0.559%	–	0.92 µM [falling, partial curve]
Cc1ccc(NC(=O)Cn2c(=O)oc3ccccc32)c(C)c1	-5.87%	–	–
O=C(CSc1nc2nc3c(cc2c(=O)n1-c1ccccc1)CCCC3)Nc1cccc2ccccc12	11.7%	–	7.31 µM [rising, single point]
Cc1cc(=O)[nH]c(SCC(=O)Nc2c(C)n(C)n(-c3ccccc3)c2=O)c1C#N	4.73%	–	0.517 µM [falling, full curve, poor fit]

Rewritten with each value named: part of the list above.
CCOC(=O)C(NC(=O)c1ccccc1)(N1CCCC1=O)C(F)(F)F (stereo not drawn)
  cell number change: -7.24%
  AC50 [2]: 0.0731 µM [rising, full curve, poor fit]
O=C(O)C1CCCN(C(=O)NCc2ccccc2)C1 (stereo not drawn)
  cell number change: -50.7%
  AC50 [1]: 20.6 µM [falling, partial curve]
  AC50 [2]: 29.1 µM [falling, single point]
